PubChem BioAssay AID1224829, NIAID, 2016

Screen: 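Genes needed for LPS-driven NF-kappaB p65 nuclear entry in mouse macrophages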 (follow-up of hits)
Cell system: mouse RAW264.7 G9 macrophage reporter cells
Knock-down reagent: single siRNA against mouse genes, 100 nM
Timing: 2 days of siRNA knock-down, then 40 min of LPS before fixing
Conditions: LPS (Salmonella minnesota R595) at 10 ng/ml
Detection: 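High-content images after 40 min LPS exposure; GFP-p65 nucleus to surrounding ring signal ratio, normalised to plate median and non-targeting control wells, expressed as z-score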
Scale: p65 translocation z-score and gene median z-score, per vendor: higher = more nuclear NF-kappaB p65 after LPS
Call rule: 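Active means the replicate-mean z-score lies beyond plus or minus 2, in either direction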
Calls: active = changed p65 translocation (either direction); inactive = no clear change
The whole screen tested about 3,800 reagents; below is a random part of them. 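Calls cover raised and lowered translocation; gene median uses one vendor's three siRNAs; qiagen siRNAs acted more weakly than ambion siRNAs.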 The numbers tell different reagents against one gene apart. No sequences are given here.

gene knocked down | siRNA no. | siRNA vendor or control pool | p65 translocation z-score, replicate mean | p65 translocation z-score, replicate 1 | p65 translocation z-score, replicate 2 | gene median z-score, per vendor | Outcome
Sox11 | 1 | ambion single siRNA | -0.304 | -1.37 | 0.761 | -1.79 | inactive
Sox11 | 2 | ambion single siRNA | -1.87 | -1.94 | -1.79 | -1.79 | inactive
Sox11 | 3 | ambion single siRNA | -3.26 | -3.26 | – | -1.79 | active
Sox11 | 4 | qiagen single siRNA | -2.22 | 0.0398 | -4.48 | -1.1 | active
Sox11 | 5 | qiagen single siRNA | -2.08 | -3.07 | -1.1 | -1.1 | active
Sox11 | 6 | qiagen single siRNA | 8.63 | 8.63 | – | -1.1 | active
Krt79 | 1 | ambion single siRNA | 0.228 | 0.86 | -0.405 | 0.86 | inactive
Krt79 | 2 | ambion single siRNA | 2.75 | 2.16 | 3.34 | 0.86 | active
Krt79 | 3 | ambion single siRNA | -1.75 | -1.75 | – | 0.86 | inactive
Krt79 | 4 | qiagen single siRNA | 1.17 | 0.321 | 2.01 | 0.857 | inactive
Krt79 | 5 | qiagen single siRNA | 0.714 | 1.39 | 0.035 | 0.857 | inactive
Krt79 | 6 | qiagen single siRNA | – | – | – | 0.857 | inactive
Plpp1 | 1 | ambion single siRNA | -0.191 | 0.566 | -0.948 | -1.47 | inactive
Plpp1 | 2 | ambion single siRNA | -3.56 | -3.16 | -3.96 | -1.47 | active
Plpp1 | 3 | ambion single siRNA | -1.47 | -1.49 | -1.44 | -1.47 | inactive
Plpp1 | 4 | qiagen single siRNA | -0.388 | -0.821 | 0.044 | -1.36 | inactive
Plpp1 | 5 | qiagen single siRNA | -2.33 | -0.818 | -3.84 | -1.36 | active
Plpp1 | 6 | qiagen single siRNA | -3.05 | -1.9 | -4.19 | -1.36 | active
Dclre1b | 1 | ambion single siRNA | 2.04 | 1.29 | 2.8 | -0.121 | active
Dclre1b | 2 | ambion single siRNA | -0.718 | -0.686 | -0.75 | -0.121 | inactive
Dclre1b | 3 | ambion single siRNA | -0.745 | 0.443 | -1.93 | -0.121 | inactive
Dclre1b | 4 | qiagen single siRNA | 0.855 | 0.538 | 1.17 | 0.251 | inactive
Dclre1b | 5 | qiagen single siRNA | -0.382 | -0.0359 | -0.727 | 0.251 | inactive
Dclre1b | 6 | qiagen single siRNA | -0.246 | -1.22 | 0.731 | 0.251 | inactive
Abcb10 | 1 | ambion single siRNA | 0.46 | 0.536 | 0.384 | -2.64 | inactive
Abcb10 | 2 | ambion single siRNA | -3.84 | -5.65 | -2.03 | -2.64 | active
Abcb10 | 3 | ambion single siRNA | -3.92 | -4.58 | -3.26 | -2.64 | active
Abcb10 | 4 | qiagen single siRNA | -0.114 | -0.191 | -0.0363 | -0.114 | inactive
Abcb10 | 5 | qiagen single siRNA | 2.12 | 1.85 | 2.4 | -0.114 | active
Abcb10 | 6 | qiagen single siRNA | -3.44 | -3.27 | -3.6 | -0.114 | active
Slc25a14 | 1 | ambion single siRNA | -1.05 | -0.75 | -1.36 | -1.63 | inactive
Slc25a14 | 2 | ambion single siRNA | -1.89 | -2.05 | -1.73 | -1.63 | inactive
Slc25a14 | 3 | ambion single siRNA | -3.87 | -1.52 | -6.22 | -1.63 | active
Slc25a14 | 4 | qiagen single siRNA | 1.16 | 1.71 | 0.613 | 0.649 | inactive
Slc25a14 | 5 | qiagen single siRNA | 0.473 | 0.649 | 0.296 | 0.649 | inactive
Slc25a14 | 6 | qiagen single siRNA | 2.43 | 2.43 | – | 0.649 | active
Prdx2 | 1 | ambion single siRNA | 2.33 | 3.7 | 0.961 | 0.92 | active
Prdx2 | 2 | ambion single siRNA | 1.63 | 2.37 | 0.878 | 0.92 | inactive
Prdx2 | 3 | ambion single siRNA | -3.47 | -1.29 | -5.66 | 0.92 | active
Prdx2 | 4 | qiagen single siRNA | 2.06 | 2.46 | 1.66 | 0.579 | active
Prdx2 | 5 | qiagen single siRNA | -0.502 | -0.502 | – | 0.579 | inactive
Prdx2 | 6 | qiagen single siRNA | -5.22 | -5.22 | – | 0.579 | active
Or4c107 | 1 | ambion single siRNA | -1.24 | -0.195 | -2.29 | -0.797 | inactive
Or4c107 | 2 | ambion single siRNA | 1.39 | 2.44 | 0.346 | -0.797 | inactive
Or4c107 | 3 | ambion single siRNA | -1.84 | -1.4 | -2.28 | -0.797 | inactive
Or4c107 | 4 | qiagen single siRNA | -1.24 | 0.0557 | -2.53 | -0.307 | inactive
Or4c107 | 5 | qiagen single siRNA | 0.483 | -1.78 | 2.75 | -0.307 | inactive
Or4c107 | 6 | qiagen single siRNA | 0.273 | -0.669 | 1.22 | -0.307 | inactive
Kcnj1 | 1 | ambion single siRNA | 3.12 | 3.2 | 3.04 | -2.39 | active
Kcnj1 | 2 | ambion single siRNA | -2.39 | -2.55 | -2.24 | -2.39 | active
Kcnj1 | 3 | ambion single siRNA | -3.56 | -3.36 | -3.77 | -2.39 | active

Limited to “gene median z-score, per vendor”, for 6 of the entries above:
Slc25a14 #3, siRNA vendor or control pool ambion single siRNA = -1.63
Slc25a14 #4, siRNA vendor or control pool qiagen single siRNA = 0.649
Slc25a14 #5, siRNA vendor or control pool qiagen single siRNA = 0.649
Slc25a14 #6, siRNA vendor or control pool qiagen single siRNA = 0.649
Prdx2 #1, siRNA vendor or control pool ambion single siRNA = 0.92
Prdx2 #2, siRNA vendor or control pool ambion single siRNA = 0.92
